The subject of the experiment is writhing response of mouse (acetic acid writhing model). As to conditions: in vivo, iv. As for the experimental part: The above samples were administrated by stomach infusion in a dose of 0.1 mg/kg weight to 16.0 mg/kg weight. […] In the mouse heat plate model, the above samples were administrated by intravenous injection in a dose of 0.1 mg/kg weight to 16.0 mg/kg weight. […] For example, the peptide of SDS-PAGE single band obtained in example 1 and 2 were injected intravenously at 0.6 mg/kg weight.

The text below walks through data of patent US7592309B2, “Method of using a peptide having analgesic and antitumor activity from scorpion” (priority 2001, dated 2009).

Consider `CN1CC[C@]23c4c5ccc(O)c4O[C@H]2[C@@H](O)C=C[C@H]3[C@H]1C5` [morphine, reference compound], for which the “ED50 (median effective dose)” value is listed as 16.0 mg/kg weight.
